Laboratory results reported in patent publication US8071774B2, “Heterocyclic spiro-compounds as aldosterone synthase inhibitors” (Novartis AG, priority 2006, dated 2011).

Conditions: low-salt diet for 48 hours plus 10 mg/kg furosemide s.c. or i.p. 16 hours (possibly also 2 hours) before start; over a period of 12-24 hours

With `NS(=O)(=O)c1cc(C(=O)O)c(NCc2ccco2)cc1Cl` [furosemide] the “increase of plasma aldosterone level” value was 5 to 20 fold.
